Source: publication PMC12969390
No constants are given. Whether binding was seen depends on the method and setting. Some binding calls cover weakened binding; strength is not graded here. For some assays here: Sequences can lack the tags named with a protein.

T1: TAF12-FLAG (C. albicans) (UniProt Q5ADM2)
T1 sequence: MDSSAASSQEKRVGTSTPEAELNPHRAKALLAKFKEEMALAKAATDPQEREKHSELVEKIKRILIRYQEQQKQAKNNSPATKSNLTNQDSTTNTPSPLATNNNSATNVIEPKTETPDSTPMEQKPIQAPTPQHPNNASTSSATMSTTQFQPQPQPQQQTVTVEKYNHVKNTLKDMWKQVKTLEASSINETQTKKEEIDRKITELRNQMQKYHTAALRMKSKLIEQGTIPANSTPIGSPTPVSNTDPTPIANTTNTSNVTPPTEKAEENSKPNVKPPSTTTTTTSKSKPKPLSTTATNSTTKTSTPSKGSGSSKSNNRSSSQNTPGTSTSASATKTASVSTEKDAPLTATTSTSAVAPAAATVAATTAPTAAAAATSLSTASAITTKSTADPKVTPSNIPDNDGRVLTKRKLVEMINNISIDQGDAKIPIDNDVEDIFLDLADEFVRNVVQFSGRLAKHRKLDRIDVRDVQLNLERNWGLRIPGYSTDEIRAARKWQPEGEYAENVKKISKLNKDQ


Experiments:
TAF12-FLAG (C. albicans) = target: T1, TAF12-FLAG (C. albicans); assay: RNA immunoprecipitation with qPCR (RIP); FLAG-tagged bait precipitated on anti-FLAG M2 beads from polysome-containing extracts of cells treated with 1 mg/ml cycloheximide, compared with puromycin-treated extracts; the partner's mRNA measured by RT-qPCR as a sign of its nascent chain
[1] = target: 3xFLAG-tagged TAF12L (C. albicans); assay: as above

Row | binding (TAF12-FLAG (C. albicans)) | binding [1] | Binder
1 | binds |  | nascent TAF4 (protein, UniProt Q59U67 1-363) MTSTPQESSNLKRQLENSEDSSSPNKKSKTETTTENQSSWESDFNSLPVELLQTETNGTSPAPAPATPIDTTNVSNSKERDQDTSKLNDAIAAAGVDIQQEEEILLQQQLNRKSAEGMASNLKSVIRSSKSPPFLHNYHLAAFIDKVAKQNGIQQNFLMDGEMLELISAACETWLSNLATKTIILSRHRRRGIPVINKKSGSSSVPRSEISKELRSLALKQKEMEEKRVNKRVMLGLEKSTKDASKNDENGESKAGAEETLHRAANATAAMMTMNPGRKKYSWMTSSATAGGGSDFGKSSGGSSKDSGKHQSPIISVRGDNGLRFREIRSGNSIIMKDLLGAIEDEKMGTRNAVIKGYAKLKD
2 |  | binds | nascent ribosome-associated Ada1 (protein, UniProt Q5AEG1 1-490) MTSQIADGSSTTTINPLKNGLAALKPTHQAHGTSTTTHLTNGSPKKIKSYKRLELERLIREFQNKLGKNWEKYHETLSLFLIGKLSRAELISTITPILKGKNLLKYHNKLLLLNFANSLKDNSSDLSTEFAGFWNKKAGKVTKNKNTQFERFKSVIMGLPVKERKRIIDISRDSGKKGKIATDIILTRHAILPKIPMIQDKEQQQLQVNNLVQWQQDVLNGINTPIATENYEIPDYDNLSRMMLMIMREHGLTGGLNPGVMEVMLLGLESHLKNIVETAIDVAKYRKNKYTNDNYIPYIKPNEDAQNISNENALPSSKDITLCIEDLHDTLEMYPHLVESEGPKLRLSNVMLENDDMINDDLNYYLPPKSIEYLAKERQAATTNDASTGTTKPGNNKGSSAGGSSAGATTNSPVVNKTDSTAAVSEKTDTNQPLQTPTATQTPVQTSAQAPASAPAQTPAPVSTPILRPDAHIGTTDELKWVLHDLVSTM
